In the supplement of paper PMC10849652:
The list shows a part of the results.

Amino acid sequences for entries named in this document (tags omitted). A change or cut given only in a name is not applied to a line headed by its entry.
UniProt Q8WVR3: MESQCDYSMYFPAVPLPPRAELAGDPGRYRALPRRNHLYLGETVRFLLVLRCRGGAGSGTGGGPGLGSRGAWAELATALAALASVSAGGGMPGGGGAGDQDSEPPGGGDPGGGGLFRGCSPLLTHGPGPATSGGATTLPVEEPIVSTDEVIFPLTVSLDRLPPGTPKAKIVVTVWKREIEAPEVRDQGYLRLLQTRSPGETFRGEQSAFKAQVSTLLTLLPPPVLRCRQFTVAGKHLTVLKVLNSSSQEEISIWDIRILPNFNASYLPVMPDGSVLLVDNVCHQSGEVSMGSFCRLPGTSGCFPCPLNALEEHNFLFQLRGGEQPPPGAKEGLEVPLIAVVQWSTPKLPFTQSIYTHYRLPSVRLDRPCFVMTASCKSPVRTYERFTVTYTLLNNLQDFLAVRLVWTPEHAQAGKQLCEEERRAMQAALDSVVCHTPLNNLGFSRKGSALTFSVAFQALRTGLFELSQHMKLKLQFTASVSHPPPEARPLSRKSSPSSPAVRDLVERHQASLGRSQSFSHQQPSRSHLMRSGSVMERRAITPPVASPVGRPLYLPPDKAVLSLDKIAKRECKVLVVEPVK
UniProt P29966: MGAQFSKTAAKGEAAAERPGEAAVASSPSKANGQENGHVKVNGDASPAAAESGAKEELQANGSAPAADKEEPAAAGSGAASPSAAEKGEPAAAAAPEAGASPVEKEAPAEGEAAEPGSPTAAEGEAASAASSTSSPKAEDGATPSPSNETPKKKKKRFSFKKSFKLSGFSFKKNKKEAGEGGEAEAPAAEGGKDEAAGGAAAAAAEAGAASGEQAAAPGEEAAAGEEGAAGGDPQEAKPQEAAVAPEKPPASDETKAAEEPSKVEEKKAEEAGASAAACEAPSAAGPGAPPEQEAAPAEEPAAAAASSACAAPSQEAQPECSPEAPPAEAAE
UniProt Q5VWZ2: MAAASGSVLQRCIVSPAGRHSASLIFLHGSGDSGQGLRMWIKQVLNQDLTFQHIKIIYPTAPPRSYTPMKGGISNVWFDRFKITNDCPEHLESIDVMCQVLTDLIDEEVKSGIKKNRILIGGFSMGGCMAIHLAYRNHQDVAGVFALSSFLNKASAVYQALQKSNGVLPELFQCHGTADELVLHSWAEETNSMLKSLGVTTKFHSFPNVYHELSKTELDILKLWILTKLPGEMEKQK
UniProt P33908: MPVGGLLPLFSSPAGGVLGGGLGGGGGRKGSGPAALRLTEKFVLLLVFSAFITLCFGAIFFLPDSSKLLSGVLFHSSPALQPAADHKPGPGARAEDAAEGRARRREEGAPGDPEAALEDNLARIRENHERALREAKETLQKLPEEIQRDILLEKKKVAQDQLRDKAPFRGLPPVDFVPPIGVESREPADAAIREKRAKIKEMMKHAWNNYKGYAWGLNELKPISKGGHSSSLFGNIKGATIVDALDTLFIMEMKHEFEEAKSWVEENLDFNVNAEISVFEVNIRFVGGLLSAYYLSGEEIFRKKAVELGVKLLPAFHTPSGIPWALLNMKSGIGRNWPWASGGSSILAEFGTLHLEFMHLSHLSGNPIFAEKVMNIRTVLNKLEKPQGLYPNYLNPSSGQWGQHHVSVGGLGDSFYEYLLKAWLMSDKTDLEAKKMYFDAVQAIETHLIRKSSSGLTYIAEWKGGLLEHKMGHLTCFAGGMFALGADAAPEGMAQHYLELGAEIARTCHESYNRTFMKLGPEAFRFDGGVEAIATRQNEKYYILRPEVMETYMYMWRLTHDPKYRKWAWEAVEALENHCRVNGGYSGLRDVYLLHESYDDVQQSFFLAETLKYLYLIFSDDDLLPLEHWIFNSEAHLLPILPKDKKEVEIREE
UniProt Q9UNF1: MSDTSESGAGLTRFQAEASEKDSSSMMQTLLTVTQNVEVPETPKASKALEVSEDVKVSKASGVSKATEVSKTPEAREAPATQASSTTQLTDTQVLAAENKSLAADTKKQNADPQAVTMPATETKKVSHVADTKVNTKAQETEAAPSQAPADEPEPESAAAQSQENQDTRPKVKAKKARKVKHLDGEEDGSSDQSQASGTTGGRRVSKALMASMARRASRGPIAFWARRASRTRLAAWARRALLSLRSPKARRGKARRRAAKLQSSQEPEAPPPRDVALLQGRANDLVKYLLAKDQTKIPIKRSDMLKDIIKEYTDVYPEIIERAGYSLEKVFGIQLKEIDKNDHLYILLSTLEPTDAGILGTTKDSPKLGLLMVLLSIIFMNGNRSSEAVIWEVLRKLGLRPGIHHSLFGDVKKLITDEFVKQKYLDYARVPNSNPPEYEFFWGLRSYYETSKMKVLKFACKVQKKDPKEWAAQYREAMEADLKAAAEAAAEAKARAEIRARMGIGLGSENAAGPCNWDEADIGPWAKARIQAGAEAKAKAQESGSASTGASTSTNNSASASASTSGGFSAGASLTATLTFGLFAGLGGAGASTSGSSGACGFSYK
UniProt P43362: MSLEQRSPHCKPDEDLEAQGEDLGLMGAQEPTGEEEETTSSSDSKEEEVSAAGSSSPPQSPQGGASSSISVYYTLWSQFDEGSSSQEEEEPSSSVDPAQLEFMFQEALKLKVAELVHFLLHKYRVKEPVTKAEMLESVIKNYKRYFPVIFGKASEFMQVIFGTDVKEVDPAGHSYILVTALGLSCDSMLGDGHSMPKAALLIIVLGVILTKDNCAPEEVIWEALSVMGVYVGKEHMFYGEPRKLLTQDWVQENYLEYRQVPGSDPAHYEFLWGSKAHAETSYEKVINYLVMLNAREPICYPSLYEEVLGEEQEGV
UniProt Q9NU23: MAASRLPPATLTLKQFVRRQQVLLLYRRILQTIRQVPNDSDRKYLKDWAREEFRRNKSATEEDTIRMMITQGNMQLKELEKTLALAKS
UniProt Q9NX47: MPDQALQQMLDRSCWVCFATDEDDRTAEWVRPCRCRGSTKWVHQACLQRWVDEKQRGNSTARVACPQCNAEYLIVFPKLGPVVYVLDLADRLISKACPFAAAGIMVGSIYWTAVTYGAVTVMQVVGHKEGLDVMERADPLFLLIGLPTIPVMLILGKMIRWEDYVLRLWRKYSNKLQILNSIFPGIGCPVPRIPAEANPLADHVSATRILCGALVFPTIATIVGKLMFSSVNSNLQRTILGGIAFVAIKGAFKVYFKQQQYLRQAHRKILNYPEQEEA
UniProt Q9BQ69: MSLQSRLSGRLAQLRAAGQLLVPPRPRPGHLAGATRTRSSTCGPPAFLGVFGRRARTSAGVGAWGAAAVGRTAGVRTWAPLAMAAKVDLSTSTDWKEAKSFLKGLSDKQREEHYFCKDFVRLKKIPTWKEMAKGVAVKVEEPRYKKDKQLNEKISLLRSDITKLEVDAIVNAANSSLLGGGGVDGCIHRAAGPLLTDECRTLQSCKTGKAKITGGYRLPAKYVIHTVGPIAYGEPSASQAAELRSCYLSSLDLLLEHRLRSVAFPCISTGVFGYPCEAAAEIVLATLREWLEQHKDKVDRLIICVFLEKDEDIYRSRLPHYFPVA
UniProt Q16659, whole entry, looked up: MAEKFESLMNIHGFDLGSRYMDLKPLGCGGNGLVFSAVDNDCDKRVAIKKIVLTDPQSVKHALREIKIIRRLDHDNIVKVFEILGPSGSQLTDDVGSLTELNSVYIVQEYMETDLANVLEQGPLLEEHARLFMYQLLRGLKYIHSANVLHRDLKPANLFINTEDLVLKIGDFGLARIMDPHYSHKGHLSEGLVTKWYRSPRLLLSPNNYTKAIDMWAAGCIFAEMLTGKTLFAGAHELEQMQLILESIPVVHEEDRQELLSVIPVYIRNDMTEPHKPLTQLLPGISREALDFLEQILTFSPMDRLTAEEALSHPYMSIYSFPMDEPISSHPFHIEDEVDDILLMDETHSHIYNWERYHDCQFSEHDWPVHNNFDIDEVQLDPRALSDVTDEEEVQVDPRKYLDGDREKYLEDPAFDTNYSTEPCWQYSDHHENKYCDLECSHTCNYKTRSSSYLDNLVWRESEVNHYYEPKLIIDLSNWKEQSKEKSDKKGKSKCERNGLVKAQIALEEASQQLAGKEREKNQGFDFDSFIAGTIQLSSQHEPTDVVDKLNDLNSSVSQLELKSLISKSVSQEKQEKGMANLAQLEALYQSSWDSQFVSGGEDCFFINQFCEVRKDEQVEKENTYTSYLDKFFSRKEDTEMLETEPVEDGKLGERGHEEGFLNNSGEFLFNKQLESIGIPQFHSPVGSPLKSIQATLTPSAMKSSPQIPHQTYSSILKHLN
UniProt O00462: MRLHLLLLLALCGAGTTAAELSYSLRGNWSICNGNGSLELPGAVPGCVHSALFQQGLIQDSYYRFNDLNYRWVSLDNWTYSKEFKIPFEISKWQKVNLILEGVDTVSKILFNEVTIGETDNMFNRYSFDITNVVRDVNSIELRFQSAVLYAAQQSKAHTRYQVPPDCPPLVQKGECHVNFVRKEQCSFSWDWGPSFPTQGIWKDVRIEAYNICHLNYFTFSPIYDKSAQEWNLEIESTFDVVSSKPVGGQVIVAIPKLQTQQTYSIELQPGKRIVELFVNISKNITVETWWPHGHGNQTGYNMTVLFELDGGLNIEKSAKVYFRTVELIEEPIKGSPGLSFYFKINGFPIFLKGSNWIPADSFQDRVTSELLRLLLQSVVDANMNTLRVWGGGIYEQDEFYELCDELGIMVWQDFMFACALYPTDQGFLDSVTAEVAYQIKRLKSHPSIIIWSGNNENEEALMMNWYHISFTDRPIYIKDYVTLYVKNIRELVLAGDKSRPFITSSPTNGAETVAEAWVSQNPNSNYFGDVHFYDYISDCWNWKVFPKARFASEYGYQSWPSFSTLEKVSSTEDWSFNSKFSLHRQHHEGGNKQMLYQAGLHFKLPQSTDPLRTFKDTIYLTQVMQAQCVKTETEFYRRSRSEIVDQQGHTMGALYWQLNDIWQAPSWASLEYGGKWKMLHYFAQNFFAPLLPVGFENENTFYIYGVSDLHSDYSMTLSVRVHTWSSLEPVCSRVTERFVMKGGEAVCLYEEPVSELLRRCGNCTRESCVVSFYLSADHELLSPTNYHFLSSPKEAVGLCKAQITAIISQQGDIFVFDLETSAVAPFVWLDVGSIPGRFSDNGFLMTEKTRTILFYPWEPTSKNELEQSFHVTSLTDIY
UniProt Q16644, whole entry, looked up: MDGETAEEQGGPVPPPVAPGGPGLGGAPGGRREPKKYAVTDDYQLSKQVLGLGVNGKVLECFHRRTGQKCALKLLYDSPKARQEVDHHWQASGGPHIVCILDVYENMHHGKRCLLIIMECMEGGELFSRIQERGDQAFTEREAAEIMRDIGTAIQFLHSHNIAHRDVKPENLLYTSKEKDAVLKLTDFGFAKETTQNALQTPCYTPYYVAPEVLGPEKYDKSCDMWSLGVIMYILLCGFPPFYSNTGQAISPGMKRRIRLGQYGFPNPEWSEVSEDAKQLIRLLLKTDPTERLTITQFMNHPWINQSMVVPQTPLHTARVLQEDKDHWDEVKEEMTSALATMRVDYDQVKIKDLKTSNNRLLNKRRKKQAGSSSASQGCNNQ
UniProt Q9NQ29: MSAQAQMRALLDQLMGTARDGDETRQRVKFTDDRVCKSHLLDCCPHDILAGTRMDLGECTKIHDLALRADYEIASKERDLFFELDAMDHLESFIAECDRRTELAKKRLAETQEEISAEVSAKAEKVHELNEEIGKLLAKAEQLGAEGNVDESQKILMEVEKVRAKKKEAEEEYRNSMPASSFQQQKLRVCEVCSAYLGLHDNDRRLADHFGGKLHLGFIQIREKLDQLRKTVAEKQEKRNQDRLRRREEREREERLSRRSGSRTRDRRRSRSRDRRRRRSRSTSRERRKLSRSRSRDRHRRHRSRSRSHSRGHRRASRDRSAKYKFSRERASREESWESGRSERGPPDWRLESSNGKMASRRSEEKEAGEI
UniProt P43355: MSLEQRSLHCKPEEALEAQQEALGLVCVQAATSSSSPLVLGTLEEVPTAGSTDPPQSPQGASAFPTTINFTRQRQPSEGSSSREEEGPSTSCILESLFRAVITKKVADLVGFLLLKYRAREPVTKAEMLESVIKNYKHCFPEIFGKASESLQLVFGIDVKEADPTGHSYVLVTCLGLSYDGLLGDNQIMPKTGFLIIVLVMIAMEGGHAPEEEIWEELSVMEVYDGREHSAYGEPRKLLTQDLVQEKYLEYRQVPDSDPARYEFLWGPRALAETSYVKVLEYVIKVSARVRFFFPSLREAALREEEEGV
UniProt O15479: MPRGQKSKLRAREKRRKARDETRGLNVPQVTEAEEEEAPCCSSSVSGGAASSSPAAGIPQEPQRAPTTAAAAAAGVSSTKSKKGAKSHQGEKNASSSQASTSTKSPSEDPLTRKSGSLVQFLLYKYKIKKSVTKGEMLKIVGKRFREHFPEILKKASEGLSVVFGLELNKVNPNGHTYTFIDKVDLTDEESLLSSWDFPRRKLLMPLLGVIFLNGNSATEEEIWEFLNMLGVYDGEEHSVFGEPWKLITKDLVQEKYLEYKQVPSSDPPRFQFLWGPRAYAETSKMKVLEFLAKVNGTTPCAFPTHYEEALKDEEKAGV

Columns and labels:
Assay in all cases: log2 fold change, soluble protein after heating vs DMSO (PISA); higher = thermal stabilisation; K562 lysate, 10 uM; active = over 0.2 and 3.5 SD of the protein, either way, in both replicates (recomputed)
[1] = compound: CS(=O)(=O)CCNCc1ccc(-c2ccc3ncnc(Nc4ccc(OCc5cccc(F)c5)c(Cl)c4)c3c2)o1 [lapatinib]
In short: (§1)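 Dounce homogenisation of K562 pellets in PBS pH 7.4 with 1 mM MgCl2 produced a crude extract, used at 1 mg/mL protein. Exposure to 10 μM compound lasted 30 min, and aliquots were then heated for 3 min across 48°C-58°C, pooled and brought to 0.5% NP-40 at 4°C. The supernatant after 21,000xg for 90 min was quantified by TMTpro 16plex LC-MS/MS with channel sums equalised. Duplicate values are given as log-two fold change in thermal stability relative to solvent controls.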

[2] = compound: CS(=O)(=O)N1CCN(Cc2cc3nc(-c4cccc5[nH]ncc45)nc(N4CCOCC4)c3s2)CC1 [pictilisib]
In short: as §1

[3] = compound: C[C@@H](Oc1cc(-c2cnn(C3CCNCC3)c2)cnc1N)c1c(Cl)ccc(F)c1Cl [crizotinib]
In short: as §1

[4] = compound: C[C@H](C1=CC=C(C=C1)C(=O)NC2=C3C=CNC3=NC=C2)N
In short: as §1

[5] = compound: C[C@H](Nc1ncnc2nc[nH]c12)c1cc2cccc(Cl)c2c(=O)n1-c1ccccc1 [duvelisib]
In short: as §1

[6] = compound: Cc1cc(Nc2cc(CN3CCOCC3)c3nc(C)c(Cc4ccc(Cl)cc4F)n3n2)n[nH]1 [gandotinib]
In short: as §1

[7] = compound: Cc1cc(Nc2cc(N3CCN(C)CC3)nc(Sc3ccc(NC(=O)C4CC4)cc3)n2)n[nH]1 [tozasertib]
In short: as §1

[8] = compound: Cc1ccc(-n2nc(C(C)(C)C)cc2NC(=O)Nc2ccc(OCCN3CCOCC3)c3ccccc23)cc1 [doramapimod]
In short: as §1

[9] = compound: Cc1ccc(NC(=O)c2ccc(CN3CC[C@H](N(C)C)C3)c(C(F)(F)F)c2)cc1Nc1nccc(-c2cncnc2)n1 [bafetinib]
In short: as §1

[10] = compound: Cc1cccc(CC(=O)N2CCc3c2ccc(-c2cn(C)c4ncnc(N)c24)c3F)n1
In short: as §1

[11] = compound: Cc1cn(-c2cc(NC(=O)c3ccc(C)c(Nc4nccc(-c5cccnc5)n4)c3)cc(C(F)(F)F)c2)cn1 [nilotinib]
In short: as §1

[12] = compound: Cc1nc(Nc2n[nH]c3c2CN(C(=O)N[C@H](CN(C)C)c2ccccc2)C3(C)C)c2sccc2n1
In short: as §1

[13] = compound: Cc1nc(Nc2ncc(C(=O)Nc3c(C)cccc3Cl)s2)cc(N2CCN(CCO)CC2)n1 [dasatinib]
In short: as §1

[14] = compound: Cc1ncc(-c2ccnc(Nc3ccc(S(C)(=O)=O)cc3)n2)n1C(C)C
In short: as §1

[15] = compound: Cn1cc(-c2ccc3c(c2)CCN3C(=O)Cc2cccc(C(F)(F)F)c2)c2c(N)ncnc21
In short: as §1

[16] = compound: Cn1cc(CNCC2CCN(c3ncc(C(=O)NO)cn3)CC2)c2ccccc21 [quisinostat]
In short: as §1

[17] = compound: Cn1cncc1[C@@](N)(c1ccc(Cl)cc1)c1ccc2c(c1)c(-c1cccc(Cl)c1)cc(=O)n2C [tipifarnib]
In short: as §1

[18] = compound: NC(=O)Nc1cc(-c2cccc(F)c2)sc1C(=O)N[C@H]1CCCNC1
In short: as §1

[19] = compound: NC(=O)c1cnc(N[C@@H]2CCCC[C@@H]2N)nc1Nc1cccc(-n2nccn2)c1
In short: as §1

[20] = compound: NC1(c2ccc(-c3nc4ccn5c(=O)[nH]nc5c4cc3-c3ccccc3)cc2)CCC1
In short: as §1

Measured: log2 fold change

MAP11 (UniProt Q8WVR3)
inactive: [1] -0.047 | [2] -0.028 | [3] -0.011 | [4] -0.102 | [5] -0.04 | [6] -0.06 | [7] -0.024 | [8] -0.024 | [9] -0.021 | [10] 0.001 | [11] -0.088 | [12] 0.002 | [13] 0.002 | [14] 0.021 | [15] -0.058 | [16] -0.026 | [17] -0.063 | [18] 0.037 | [19] -0.014 | [20] -0.007

MARCKS (UniProt P29966)
inactive: [1] -0.047 | [2] -0.028 | [3] 0.036 | [4] -0.05 | [5] 0.077 | [6] 0.017 | [7] 0.059 | [8] -0.031 | [9] 0.144 | [10] -0.022 | [11] 0.056 | [12] 0.02 | [13] 0.033 | [14] -0.014 | [15] 0.002 | [16] -0.045 | [17] 0.001 | [18] -0.024 | [19] -0.037 | [20] 0.083

LYPLAL1 (UniProt Q5VWZ2)
inactive: [1] -0.006 | [2] -0.013 | [3] 0.094 | [4] -0.043 | [5] 0.003 | [6] 0.003 | [7] 0.006 | [8] -0.037 | [9] -0.014 | [10] 0.021 | [11] -0.026 | [12] -0.023 | [13] -0.009 | [14] 0.018 | [15] 0.001 | [16] 0.025 | [17] 0.045 | [18] -0.012 | [19] -0.024 | [20] 0.026

MAN1A1 (UniProt P33908)
inactive: [1] -0.031 | [2] -0.017 | [3] 0.002 | [4] -0.037 | [5] 0.007 | [6] 0 | [7] 0 | [8] 0.009 | [9] -0.055 | [10] 0.053 | [11] -0.015 | [12] -0.013 | [13] 0.004 | [14] 0.022 | [15] 0.038 | [16] 0.035 | [17] -0.041 | [18] 0.005 | [19] -0.01 | [20] -0.063

MAGED2 (UniProt Q9UNF1)
inactive: [1] -0.017 | [2] 0.013 | [3] -0.039 | [4] 0.016 | [5] -0.014 | [6] -0.108 | [7] -0.012 | [8] 0.017 | [9] -0.156 | [10] 0 | [11] 0.047 | [12] -0.026 | [13] -0.024 | [14] -0.085 | [15] 0.05 | [16] -0.031 | [17] -0.031 | [18] 0.01 | [19] -0.022 | [20] -0.074

MAGEA9 (UniProt P43362)
inactive: [1] -0.033 | [2] 0 | [3] -0.022 | [4] -0.078 | [5] 0.061 | [6] 0.023 | [7] 0 | [8] 0.042 | [9] -0.022 | [10] 0.003 | [11] 0.024 | [12] 0.015 | [13] 0.032 | [14] 0.013 | [15] -0.003 | [16] -0.014 | [17] 0.012 | [18] 0.003 | [19] -0.008 | [20] 0.002

LYRM2 (UniProt Q9NU23)
inactive: [1] -0.044 | [2] 0.019 | [3] 0.056 | [4] -0.029 | [5] -0.013 | [6] 0.027 | [7] 0.022 | [8] -0.066 | [9] -0.02 | [10] 0.048 | [11] -0.001 | [12] -0.011 | [13] 0.088 | [14] 0.02 | [15] 0.015 | [16] -0.016 | [17] 0.015 | [18] 0.028 | [19] -0.005 | [20] -0.033

MARCHF5 (UniProt Q9NX47)
inactive: [1] -0.056 | [2] -0.034 | [3] -0.066 | [4] -0.166 | [5] 0.004 | [6] 0.055 | [7] -0.102 | [8] -0.034 | [9] 0.096 | [10] 0.017 | [11] 0.093 | [12] -0.009 | [13] -0.064 | [14] -0.033 | [15] -0.052 | [16] -0.027 | [17] 0.013 | [18] 0.014 | [19] -0.027 | [20] 0.017

MACROD1 (UniProt Q9BQ69)
inactive: [1] 0.011 | [2] -0.013 | [3] -0.066 | [4] 0.084 | [5] 0.04 | [6] -0.017 | [7] -0.03 | [8] -0.012 | [9] -0.102 | [10] 0.052 | [11] 0.036 | [12] -0.099 | [13] -0.066 | [14] 0.021 | [15] 0.055 | [16] -0.083 | [17] 0.005 | [18] 0.022 | [19] -0.006 | [20] -0.024

MAPK6 (UniProt Q16659)
inactive: [1] -0.038 | [2] -0.021 | [3] 0.025 | [4] 0.075 | [5] -0.008 | [6] -0.042 | [7] -0.024 | [8] -0.006 | [9] -0.028 | [10] -0.045 | [11] -0.065 | [12] 0.085 | [13] 0.032 | [14] 0.05 | [15] 0.039 | [16] -0.003 | [17] -0.081 | [18] 0.055 | [19] 0.017 | [20] -0.028

2 successive entries out of the list so far, for reference:
LYPLAL1 (UniProt Q5VWZ2)
inactive: [1] -0.006 | [2] -0.013 | [3] 0.094 | [4] -0.043 | [5] 0.003 | [6] 0.003 | [7] 0.006 | [8] -0.037 | [9] -0.014 | [10] 0.021 | [11] -0.026 | [12] -0.023 | [13] -0.009 | [14] 0.018 | [15] 0.001 | [16] 0.025 | [17] 0.045 | [18] -0.012 | [19] -0.024 | [20] 0.026

MAN1A1 (UniProt P33908)
inactive: [1] -0.031 | [2] -0.017 | [3] 0.002 | [4] -0.037 | [5] 0.007 | [6] 0 | [7] 0 | [8] 0.009 | [9] -0.055 | [10] 0.053 | [11] -0.015 | [12] -0.013 | [13] 0.004 | [14] 0.022 | [15] 0.038 | [16] 0.035 | [17] -0.041 | [18] 0.005 | [19] -0.01 | [20] -0.063

Going on with the list.

MANBA (UniProt O00462)
inactive: [1] -0.009 | [2] -0.033 | [3] -0.015 | [4] -0.048 | [5] 0.024 | [6] 0.097 | [7] 0.093 | [8] 0.01 | [9] -0.075 | [10] 0.06 | [11] -0.032 | [12] 0.001 | [13] 0.007 | [14] 0.005 | [15] 0.022 | [16] -0.034 | [17] 0.007 | [18] 0.037 | [19] 0.016 | [20] 0.004

MAPKAPK3 (UniProt Q16644)
inactive: [1] 0 | [2] -0.013 | [3] -0.026 | [4] 0.034 | [5] -0.038 | [6] -0.044 | [7] 0.046 | [8] -0.025 | [9] 0.026 | [10] -0.014 | [11] -0.024 | [12] 0.077 | [13] 0.023 | [14] -0.058 | [15] 0.016 | [16] 0.01 | [17] 0.017 | [18] 0.021 | [19] 0.013 | [20] 0.009

LUC7L (UniProt Q9NQ29)
active: [6] -0.32
inactive: [1] -0.022 | [2] -0.009 | [3] 0.097 | [4] -0.097 | [5] 0.006 | [7] 0.012 | [8] -0.028 | [9] -0.022 | [10] 0.023 | [11] -0.027 | [12] -0.113 | [13] -0.032 | [14] -0.047 | [15] 0.023 | [16] 0.22 | [17] 0.033 | [18] -0.207 | [19] -0.014 | [20] 0.032

MAP3K20 (UniProt Q9NYL2)
inactive: [1] 0.015 | [2] -0.006 | [3] -0.01 | [4] 0.029 | [5] -0.061 | [6] -0.121 | [7] -0.028 | [8] 0.025 | [9] -0.224 | [10] -0.016 | [11] -0.09 | [12] 0.022 | [13] -0.069 | [14] 0.012 | [15] -0.045 | [16] -0.06 | [17] 0.003 | [18] 0.021 | [19] 0.009 | [20] -0.047

MAGEA1 (UniProt P43355)
inactive: [1] -0.092 | [2] -0.044 | [3] 0.042 | [4] 0.018 | [5] 0.002 | [6] -0.092 | [7] 0.005 | [8] -0.023 | [9] -0.034 | [10] 0.01 | [11] -0.01 | [12] 0.104 | [13] 0.011 | [14] -0.04 | [15] -0.003 | [16] -0.023 | [17] -0.05 | [18] 0.034 | [19] 0.071 | [20] 0.037

MAGEB2 (UniProt O15479)
inactive: [1] 0.006 | [2] -0.039 | [3] -0.022 | [4] -0.016 | [5] 0.042 | [6] -0.011 | [7] -0.026 | [8] -0.017 | [9] -0.055 | [10] 0.052 | [11] 0.024 | [12] 0.027 | [13] -0.022 | [14] -0.007 | [15] 0.027 | [16] -0.03 | [17] 0.018 | [18] 0.041 | [19] -0.005 | [20] -0.023
